From PubChem BioAssay AID1347426 (Functional Genomics Laboratory (NCATS/FGL), 2020)
The whole screen tested about 31,000 sequences, of which about 1,400 (4.5%) were called active.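 The calls were made as follows: active = median seed-adjusted z-score above 1 or below -1; inactive = the rest.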 This is one part of the list.

Test: Novel Modifiers of Survival Motor Neuron (SMN) Protein: Gene Identification via Genome-wide siRNA Screen;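 also: luminescence tracks full-length SMN protein made from the SMN2 reporter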
Details: HEK293T SMN2-luciferase reporter, siRNA knockdown, 72 h; actives lie on both sides
Procedure, shortened: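 Genome-wide siRNA screen (10418 genes, 3 siRNAs each, 1 pmol per well) by reverse transfection in HEK293T cells stably carrying an SMN2-luciferase reporter; luminescence after 72 hours, normalized to negative-control siRNA, log10-transformed, MAD-scored.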

Sequence	median seed-adjusted z-score
CCGAAAGAAUUAUCGCAAATT against MYO1A	inactive: -0.0501
CCUUCACUGUGACGAAAUATT against CAV1	inactive: 0
GGAUCUUCACACGAUCAAATT against DDEF2	inactive: 0.438
GGGUCAUAGAUACAACAAUTT against PROX2	inactive: -0.825
CCACUCACCCGAUCUCCUATT against GGTLC2	inactive: -0.288
CGAGGAUAUUGUGGAAUCATT against PROCA1	inactive: -0.502
AAAUCGAUGGAGUCCUUUATT against STOML2	inactive: -0.264
GGAUGUUGGUGGUCAAGAUTT against ARF4	inactive: 0.346
AGACGAAGGUUCAACAUCATT against TFEB	inactive: 0.34
CCAAGGUUAUUAUCGCUGUTT against IGSF10	inactive: -0.0992
GGCCGGGAACUGUUGGUUUTT against SYPL2	inactive: 0.233
CUAUAGCAAGUGAACUAAATT against COG5	inactive: -0.0609
GUCUGAACAUAAGACUAAATT against SCYL2	inactive: -0.0652
GGACUUCGAUUCUUUGGAATT against BIK	inactive: 0.0492
GCGGUAAACUCGACACGUUTT against MARK3	inactive: 0.271
GCUCUGUCAAGCUAACUGATT against PAK1	inactive: -0.168
GGGCAUCCAUUUAAAGGCUTT against FRRS1	inactive: -0.4
GAUACUAUGUUACAGGAGATT against ACSS2	inactive: 0
GGGCUUUAAAUAUGAGAUUTT against GRID1	inactive: 0.66
GAUAGUGACAGGUUAAUGATT against TIGD6	inactive: -0.443
GCCGCCUACUAUUACAUCATT against SNRNP200	inactive: 0.889
GGACACCUAUGAGGAAGUATT against PCYT2	inactive: 0.217

Sequence	median seed-adjusted z-score
GCAAGUAUUUUGACAAGGUTT against KIF7	inactive: 0.0274
ACAACAUGAAGGUCCUCUATT against THY1	active: -1.1
GUCUCGUAGUGUUAUGUCUTT against GBA2	inactive: 0.143
GCUACGAAAUGCUUGCUCATT against GALT	inactive: 0.484
GCUUUUGACGAAACCAAGATT against PDIA2	inactive: 0.151
ACAACGUGGUGAGAUGCAATT against LOXL1	inactive: 0.0435
GCACGUAUGUAGACGGAGATT against SETD7	inactive: -0.0831
GACCAGUUUUGAUAGUCAATT against SYT10	inactive: 0
CCGGUGAAUUUACAGACUUTT against ZW10	inactive: 0.199
GGCGAAUUCCAUACCGUUATT against NEK2	inactive: -0.276
GGCUGGAAAUCUCGCCUAUTT against ABCB4	inactive: 0
GCACCUCUACAGGAACUUUTT against TSC2	active: 1.11
GGUACUUCAUCGACCGAGATT against KCTD7	inactive: 0.484
GCCUUUUCAGGAGCGCAGATT against ACTN4	inactive: 0
GUAAGGACAUUCUACAGCATT against DHX32	inactive: -0.12
GGACCGAGGUCUUUCCAUUTT against LSM1	inactive: 0
CGACAUACCCAGACUGAUATT against TNIK	inactive: 0.154
CCAAUGCCCAUGCAAGUGATT against ITIH5L	inactive: -0.407
GGAACUGUUUUUACAAGCATT against MKRN1	inactive: -0.496
GACCUAUCCUGGUUUUACUTT against TBXAS1	inactive: 0
CGGGUUCCGUAAAUGAAAATT against SMOC2	inactive: -0.72
CCAAGCCUCUUUCCUACAATT against GPR52	active: -1.17

A different layout for part of the listing above.
Sequence | median seed-adjusted z-score
GGUACUUCAUCGACCGAGATT against KCTD7 | inactive: 0.484
GCCUUUUCAGGAGCGCAGATT against ACTN4 | inactive: 0

Single values from the entries so far.
For median seed-adjusted z-score, GCACCUCUACAGGAACUUUTT against TSC2 shows active: 1.11
For median seed-adjusted z-score, GGGCUUUAAAUAUGAGAUUTT against GRID1 shows inactive: 0.66
For median seed-adjusted z-score, ACAACAUGAAGGUCCUCUATT against THY1 shows active: -1.1

(further entries)

Sequence	median seed-adjusted z-score
CGCAGAAGAUGUACCAGUUTT against CDH22	inactive: -0.57
GCACAAGAGUGAAGCUCCUTT against BTN3A1	inactive: -0.198
CACCUGCAGUCAAUAAAAUTT against NPVF	inactive: 0.588
GCAACUCCAUGAGAAGAAATT against KCNJ8	inactive: 0.329
CACUGACCCUCAUAAUCCATT against LARS2	inactive: 0.25
GGAAGACAGUUUUUAUUUUTT against ST3GAL4	inactive: 0.245
CCAUGGACGUCAUGCUGUGTT against DRD4	inactive: -0.183
AGGAGCCUAUUAUCCCUAUTT against IRX6	inactive: -0.0329
GCACCAAGGUGAAGACCUUTT against NFKB2	inactive: -0.132
AAAUUUCCACGGUGAAAUATT against NPPB	inactive: -0.973
GCGAAGUGUUCAGACCAAATT against HEATR1	inactive: -0.115
GGUUAACGAUUAUUCGGCATT against GRID2	inactive: 0.676
UGUUCAGAAUACAAUAAUATT against CARD16	inactive: 0.57
CUACAAAGCCGUUUCUUAUTT against CLDN18	inactive: 0.000299
CCCAAGAUUAUGUUACGUATT against SMYD4	inactive: 0.272
CCAACAACUAGAUAGAUUATT against NRL	inactive: -0.352
AGACAGUCCUAGGAGCUGATT against IL11RA	inactive: -0.708
GCCUCUGCCUGUAUCCUAATT against DQX1	inactive: -0.297
GAUUGUUGAUGGAAUUGAATT against KCNH8	inactive: 0
GAUUGAUGGGUGUAAGAAATT against SMS	inactive: 0.186
GCCAGAAAAUUGGCGACGATT against GCGR	inactive: -0.224
GGUUGUCUUCCGUCAGAUATT against MELK	inactive: -0.195

Sequence	median seed-adjusted z-score
CCUCCACUACAAACCCACATT against GPR56	inactive: -0.109
GUUCUGGACCGGUUACUUUTT against MAN2B1	inactive: -0.246
UCACUAUCAGUACCCAUUATT against CHRNB1	inactive: 0.16
GAAUGAUGAUUCAUGAACATT against STX7	inactive: 0.251
CCCUGUCACUUGUCAGACATT against DHX9	inactive: -0.687
GCAGCAUAAUGAAACGUGATT against ARPM1	inactive: -0.0251
GCUAUGAUCCAGUUACUAATT against IPP	inactive: 0.298
UGUCCACUGUGCACGGGAATT against CLDN15	inactive: 0.973
CCAUACGAAAUGUAACAGATT against SRBD1	inactive: 0.169
GACAUGAAGUGGUUUUGGATT against TRIM55	inactive: -0.483
AGAGGUACGUCUACAGUAUTT against F2R	inactive: -0.392
GCUUUCGUCAAGUCAAAGATT against TIRAP	inactive: -0.431
GUAUGAACAUGCUAAUGAUTT against PDXDC1	inactive: 0.665
CAAUAUUUAAGGGAAAGUATT against IRF9	inactive: 0.114
GCAGAUACGAGUGGACAAATT against ZNF532	inactive: -0.0289
GGGAGGGCCUUGAUUUCCATT against AQP2	inactive: -0.433
CCAGCUGCCAAUUAUCUCATT against TRIM72	inactive: -0.0122
GAGUUAUGAGUGACUAUUUTT against COG5	inactive: -0.0609
GCUCGUCCCUGAUGGAUAATT against EDN1	inactive: 0.0717
GGUAUGCUAUGAGACUAAATT against AFF3	inactive: -0.00277
GUACAACAGUUCAUCCUUATT against COG4	inactive: -0.508
GCUUCGUGAGCUUUGAUAATT against BRUNOL5	inactive: 0.333

Sequence	median seed-adjusted z-score
GCAUCUGAAGACUCAGGCATT against TAZ	inactive: 0.0549
GAUUGUCAACUUGCCGGUATT against NFE2	inactive: -0.0226
GCAUAGACCUCGUGAAGGATT against B4GALNT3	inactive: -0.021
GGAGAUGUAUUGGUGAGAATT against CYP3A5	inactive: 0.0516
GUGUGGAUCUUACGGAAAATT against DDEF2	inactive: 0.438
CCCUGACAUUGAUGCGAAUTT against ZNF687	inactive: 0
UAGUGAAUGUUGCCCAAAATT against CLDN8	inactive: 0.542
CCAGGCCCAUUCUACAAUATT against PEAR1	inactive: 0.071
GACCGAAAAAUACCGCUGATT against HBM	inactive: 0
GAUUCCAAGUUCAGGAGAATT against ABCC5	inactive: 0.00533
GCAUGAACCUCACUGUGCATT against ZNF71	inactive: -0.0193
CCAUCAUCGACACACCCAATT against PRSS27	active: 1.03
GGAGAAAAGUAAACGGGCATT against SULT1C4	inactive: 0.00352
GCCGGCAGUUUCUAAAGUATT against PTDSS2	inactive: 0.0941
GAAAUUGAUAAGCAAAGUATT against TRO	active: 2.04
AACUCAGCUGGGUACCUCATT against PLA2G4D	inactive: -0.233
CGCCUGCAAUAUGCAAUCATT against CRYL1	inactive: 0.0852
CCACCGAUGAGAUUACCUUTT against STS	inactive: -0.392
GGCCGAGGAGUAUGACUAUTT against EFS	inactive: -0.299
GGCUGAUAUGGGUCAUGAATT against TNKS	inactive: 0.193
